# Results: PubChem BioAssay AID623959 (National Center for Advancing Translational Sciences (NCATS), 2012)
# Amino acid sequences for entries named in this document (tags omitted).
# UniProt Q8NER1, whole entry, looked up: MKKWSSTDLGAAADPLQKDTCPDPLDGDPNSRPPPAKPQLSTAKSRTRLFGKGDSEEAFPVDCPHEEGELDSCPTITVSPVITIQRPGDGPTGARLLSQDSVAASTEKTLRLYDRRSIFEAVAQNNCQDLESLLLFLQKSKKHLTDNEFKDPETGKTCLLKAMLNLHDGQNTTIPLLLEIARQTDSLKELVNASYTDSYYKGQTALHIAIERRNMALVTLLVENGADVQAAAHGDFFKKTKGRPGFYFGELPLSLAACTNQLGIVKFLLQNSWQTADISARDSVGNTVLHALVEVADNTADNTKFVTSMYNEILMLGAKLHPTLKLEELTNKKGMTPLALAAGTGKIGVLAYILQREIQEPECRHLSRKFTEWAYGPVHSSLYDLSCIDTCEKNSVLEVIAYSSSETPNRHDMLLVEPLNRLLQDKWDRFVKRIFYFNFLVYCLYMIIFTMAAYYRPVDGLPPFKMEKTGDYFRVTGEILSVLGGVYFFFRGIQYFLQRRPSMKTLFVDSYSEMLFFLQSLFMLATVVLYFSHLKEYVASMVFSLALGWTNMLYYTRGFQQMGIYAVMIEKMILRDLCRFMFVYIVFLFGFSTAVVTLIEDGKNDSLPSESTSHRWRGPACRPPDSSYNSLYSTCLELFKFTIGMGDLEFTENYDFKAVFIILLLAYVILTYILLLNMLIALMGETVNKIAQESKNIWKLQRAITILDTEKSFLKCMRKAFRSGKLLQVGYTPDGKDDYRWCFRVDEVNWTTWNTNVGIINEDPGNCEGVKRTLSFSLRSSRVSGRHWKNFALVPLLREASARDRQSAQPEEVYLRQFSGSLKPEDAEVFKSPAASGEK
# Screen size: about 1,400 compounds; fewer than 10 were called active. Inconclusive results (about 8%) are left out. Calls follow the shape of the dose curve; as a rule, active = well fitted curve in the direction sought with a large enough effect; inconclusive = small, poorly fitted or top-dose-only effect, or another doubt; inactive = no such curve, though single readings can be large or run the other way. Some of the results follow.
# Target: Transient receptor potential cation channel subfamily V member 1 (Homo sapiens) (UniProt Q8NER1)
# Assay: qHTS Assay for Compounds that Act as Potentiators of the Vanilloid Receptor 1: Hit Validation; also: % of control where 0% means no effect
# Settings: TRPV1-expressing cells, Fluo-8 calcium influx, capsaicin EC20; at 42.1 µM (top of the series)
# Source text: The transient receptor potential ion channel, family V, number 1, (TRPV1) is one of the most important molecular transducers of painful stimuli and a potential target for analgesic drug development. Although recent clinical trials with orthosteric antagonists have not produced a successful drug because of a hyperthermia side effect and their tendency to block thermal noxious pain, this ion channel is undeniably well placed in the pain pathway, and the idea of blocking pain signals before they enter the CNS is an excellent concept and of proven efficacy when TRPV1 agonists are used. We propose a new approach involving allosteric modulation to impose an activity-dependent constraint within the context of inflammation and tissue damage that would alter the responsiveness of the channel in a way that an orthosteric vanilloid antagonist cannot achieve. We believe that the allosteric modulator approach has not been explored for this target. The main goal of this proposal is to identify additional, new, potent allosteric modulators of TRPV1 that can be used to investigate TRPV1 function. Our recent report provides evidence of proof of concept, but the compounds are just at the edge of utility in terms of potency. […] The question of whether they can be used as analgesic agents is complex, but if suitable compounds are identified then testing for analgesic properties will be conducted. Compounds identified as agonists were re-tested in the primary screen for hit validation. NIH Chemical Genomics Center [NCGC] NIH Molecular Libraries Probe Centers Network [MLPCN] MLPCN Grant: MH089480 Assay Submitter (PI): Michael Iadarola, National Institute of Dental and Cranofacial Research
# Upon TRPV1 activation in TRPV1 cells, the channel opens and extracellular cations flow through the channel into the cytosol. A calcium binding dye (Fluo-8) becomes fluorescent when bound to calcium. This dye is pre-loaded into cells and is used as a marker for calcium influx. The amount of accumulated calcium is precisely quantified using the FDSS kinetic reader and the calcium dye. For the HTS assay, freshly prepared cells are plated at a density of 2000/well in 3 ul medium in 1536-well plates and cultured overnight at 35.5C. Cells will be loaded with 1 ul of the homogeneous calcium dye (ABD Bioquest) at room temperature for 40 to 90 minutes. Plates will be loaded into the FDSS kinetic reader and a 1 sec / cycle for 10 second baseline signal will be measured. Compound library will then be added with a pintool at 23 nl and measured kinetically for 3 minutes. This portion of the read is considered the agonist portion of the screen. Following the 3 minutes of incubation, an on board pipettor will deliver 1 ul of capsaicin for a final concentration equal to the EC20. Signal will be measured kinetically for an additional 2 minutes. This portion of the read is considered the allosteric enhancer portion of the screen. The FDSS reader has a standard filter set capable of measuring calcium bound Fluo-8 (ex=480 and em=520 nm).
row,SMILES,"activity change, positive = potentiation"
1,CN1CCN(c2ccc(N)cc2Cl)CC1,inactive: -0.625%
2,COc1ccc(/C=N\N=C(N)N)cc1,inactive: -4.03%
3,Cc1ncoc1C(=O)NCCC(c1ccccc1)c1ccccc1,inactive: -38.2%
4,NC(=O)Cn1cc(C(=O)c2ccccc2)c2ccccc21,inactive: -8.42%
5,CCN1CC2C3CCC(C)(O3)C2C1 (stereo not given),inactive: 1.5%
6,O=C(O)CCn1cc(C=C2C(=O)NC(=O)NC2=O)c(-c2cc3ccccc3oc2=O)n1,inactive: -2.95%
7,CCCCn1c(N)c(C(=O)OCCOC)c2nc3ccccc3nc21,inactive: -25%
8,Cc1ccc(Cn2nc(C(=O)Nc3ccc(Br)cc3)cc2C)cc1,inactive: -38.4%
9,Cc1cc(C(=O)CS(=O)(=O)c2ccc(F)cc2)cc(C)c1OC(=O)N(C)C,inactive: -10.7%
10,O=P(Oc1ccccc1)(Oc1ccccc1)C(O)c1ccc(Cl)cc1 (stereo not given),inactive: -6.55%
11,CN(C)C1C(=O)C(C(N)=O)=C(O)C2(O)C(=O)C3=C(O)c4c(O)cccc4C(C)(O)C3C(O)C12 (stereo not given),inactive: 5.12%
12,N#Cc1ccc(Cn2cc(C(=O)c3ccco3)c3ccccc32)cc1,inactive: -6.34%
13,O=C1C2CCN(CC2)[C@@H]1Cc1ccc2ccccc2c1O,inactive: 8.84%
14,O=C(CNC(=O)c1cccc(Cl)c1)Nc1ccc(Br)cc1C(=O)c1ccccc1,inactive: -10.5%
15,C[n+]1c(-c2ccccc2)cc(CCCCc2cc(-c3ccccc3)[n+](C)c(-c3ccccc3)c2)cc1-c1ccccc1,inactive: 1.26%
16,COc1ccc(Cl)cc1N=Cc1c(O)n(C)c(=O)n(C)c1=O,inactive: -4.58%
17,O=C(Cn1nc(-c2ccc(Cl)cc2)ccc1=O)N1CCC2(CC1)OCCO2,inactive: -9.23%
18,COC(=O)Cn1cc(C=C2C(=O)N(C)C(=O)N(C)C2=O)c2ccccc21,inactive: -0.412%
19,Cc1c(C(c2ccc(Cl)cc2Cl)c2c(O)c3ccccc3oc2=O)c(=O)n(-c2ccccc2)n1C (stereo not given),inactive: -10.2%
20,O=[N+]([O-])NC1=NCCN1Cc1ccc(Cl)nc1,inactive: -7.67%
21,C/C=C(\C)C(=O)N[C@@H](c1ccccc1)[C@@H](O)C(=O)O[C@H]1C[C@@]2(O)[C@@H](OC(=O)c3ccccc3)C3[C@](C)(C(=O)[C@H](O)C(=C1C)C2(C)C)[C@@H](O)C[C@H]1OC[C@@]31OC(C)=O (stereo not given in full),inactive: -5.57%
22,CCCCCCCCC(=O)NCc1ccc(O)c(OC)c1,inactive: -38.8%
23,COc1cc(CNC(=O)CCCC/C=C/C(C)C)ccc1O,inactive: -38.4%
24,O=S(=O)(c1ccc(F)cc1)N1CN2CCN(C2)C1,inactive: -7.98%
25,O=[P+](Cc1ccccc1)Cc1ccccc1,inactive: -8.17%
26,CCc1ccc(NP(=O)(Oc2ccccc2F)Oc2ccccc2F)cc1,inactive: -3.25%
27,N/C(=N\[N+](=O)[O-])N1CCN(C(=O)c2ccccc2)CC1,inactive: -3.88%
28,CCCCCn1c(=O)c(C(=O)NCc2ccccc2)c(O)c2ccccc21,inactive: -4.39%
29,COc1ccc(-n2c(/C=C3\C(=O)Nc4ccccc43)nc3ccccc3c2=O)cc1,inactive: 11.8%
30,CCn1cc(C(=O)NCc2ccccc2)c2ccccc21,inactive: 2.86%

# Pulled by structure from the entries so far:
row,SMILES,"activity change, positive = potentiation"
26,CCc1ccc(NP(=O)(Oc2ccccc2F)Oc2ccccc2F)cc1,inactive: -3.25%
20,O=[N+]([O-])NC1=NCCN1Cc1ccc(Cl)nc1,inactive: -7.67%
